PubChem BioAssay AID1159578, Peter MacCallum Cancer Centre, 2015
This is one part, drawn at random, of about 18,000 reagents tested. About 1,030 of them (5.7%) count as active. 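Inactive calls also include pools with fewer than 3300 nuclei, whose migration was not assessed.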 Raw values vary from plate to plate and are shown uncorrected. Further read-outs or replicates are left out here.

Aim: 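Knock-downs that alter how fast lymphatic endothelial cells migrate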 (primary screen)
Cells: human lymphatic endothelial cells
Reagent: siRNA pool against human genes, 40 nM
Duration: 48 h after transfection
Detection: 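Cells stained with dye and imaged after a scratch; covered wound area and nuclei counted, duplicates averaged, migration set against mock wells and turned into a robust z-score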
Scale: migration robust z-score: higher = faster migration into the scratch; nuclei per well: higher = more cells in the well
Hit rule: 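Pools averaging fewer than 3300 nuclei are never called; remaining pools count as changed when migration robust z lies outside -2 to 2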
Calls: active = migration changed; inactive = no migration change, or too few cells

With PUDP, how do the results read?
migration robust z-score: 1.56; migration class with cell-count check: migration z between -2 and 2; enough cells; nuclei per well, duplicate mean: 5666; activity call: inactive

For SLC26A2, what was measured?
migration robust z-score: -0.05; migration class with cell-count check: migration z between -2 and 2; enough cells; nuclei per well, duplicate mean: 6469; activity call: inactive

For SCGN, what was measured?
migration robust z-score: -0.56; migration class with cell-count check: migration z between -2 and 2; enough cells; nuclei per well, duplicate mean: 7516; activity call: inactive

With ZC3H12A, what does the deposit list?
migration robust z-score: 0.08; migration class with cell-count check: migration z between -2 and 2; enough cells; nuclei per well, duplicate mean: 4944; activity call: inactive

What did the screen give for ABCD4?
migration robust z-score: -0.23; migration class with cell-count check: migration z between -2 and 2; enough cells; nuclei per well, duplicate mean: 5757; activity call: inactive

What is on record for KLHL26?
migration robust z-score: -0.16; migration class with cell-count check: migration z between -2 and 2; enough cells; nuclei per well, duplicate mean: 5796; activity call: inactive

Which result is listed for PLCXD1?
migration robust z-score: 0.7; migration class with cell-count check: migration z between -2 and 2; enough cells; nuclei per well, duplicate mean: 3684; activity call: inactive

Which result is listed for RNF149?
migration robust z-score: 1.06; migration class with cell-count check: migration z between -2 and 2; enough cells; nuclei per well, duplicate mean: 5334; activity call: inactive

What is on record for GPR135?
migration robust z-score: 0.55; migration class with cell-count check: migration z between -2 and 2; enough cells; nuclei per well, duplicate mean: 7224; activity call: inactive

What did the screen give for TMEM140?
migration robust z-score: -0.38; migration class with cell-count check: migration z between -2 and 2; enough cells; nuclei per well, duplicate mean: 6148; activity call: inactive

With C11orf52, what does the deposit list?
migration robust z-score: -0.91; migration class with cell-count check: migration z between -2 and 2; enough cells; nuclei per well, duplicate mean: 3444; activity call: inactive

What is on record for FBP2?
migration robust z-score: -0.34; migration class with cell-count check: migration z between -2 and 2; enough cells; nuclei per well, duplicate mean: 6791; activity call: inactive
